Data as given in PubChem BioAssay AID1508597 (Cure First, 2020)

Purpose: 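Knock-downs altering ovarian cancer cell survival with or without PARP inhibitor rucaparib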 (primary screen)
Cell system: human ovarian carcinoma lines grown from tumours: OCI-P5x (papillary serous) and OCI-C5x (clear cell)
Knock-down reagent: siRNA pool against human genes, 1.25 pmol siRNA per well
Duration: 72 h or 96 h, depending on the cell culture
Challenge: rucaparib 20 µM (about IC30) or vehicle, present until read-out
Read-out: 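ATP luminescence measured at 72 or 96 h according to the culture, then normalised and expressed as percent viability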
Scale: viability, normalised: higher = more viable cells remaining
Active means: 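a well counts as a hit if its normalised viability is under 80 percent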
Meaning of the calls: active = viability under 80%; inactive = viability 80% or more
In all, the deposit lists about 2,100 reagents; this is an unselected part. 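Calls flag viability under 80% in either arm, not effects specific to rucaparib; the reference for percent is not stated.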 A reagent listed more than once was tested more than once; the source does not tell the runs apart. Not stated in the record: the 100% reference.

no.	Gene	rucaparib or vehicle	cell line	technical replicate	viability, normalised (%)	Outcome
1	KDM4B	Rucaparib	OCI-C5x (clear cell)	1	39.8	active
2	KDM4B	Rucaparib	OCI-C5x (clear cell)	2	37.9	active
3	KDM4B	Rucaparib	OCI-C5x (clear cell)	3	34.8	active
4	KDM4B	Rucaparib	OCI-P5x (serous)	1	54.1	active
5	KDM4B	Rucaparib	OCI-P5x (serous)	2	55.9	active
6	KDM4B	Rucaparib	OCI-P5x (serous)	3	49	active
7	KDM4B	Vehicle	OCI-C5x (clear cell)	1	53.3	active
8	KDM4B	Vehicle	OCI-C5x (clear cell)	2	41.5	active
9	KDM4B	Vehicle	OCI-C5x (clear cell)	3	58.1	active
10	KDM4B	Vehicle	OCI-P5x (serous)	1	46.7	active
11	KDM4B	Vehicle	OCI-P5x (serous)	2	54.6	active
12	KDM4B	Vehicle	OCI-P5x (serous)	3	88.3	inactive
13	JAK3	Rucaparib	OCI-C5x (clear cell)	1	57.9	active
14	JAK3	Rucaparib	OCI-C5x (clear cell)	2	73.4	active
15	JAK3	Rucaparib	OCI-C5x (clear cell)	3	63	active
16	JAK3	Rucaparib	OCI-P5x (serous)	1	130	inactive
17	JAK3	Rucaparib	OCI-P5x (serous)	2	142	inactive
18	JAK3	Rucaparib	OCI-P5x (serous)	3	106	inactive
19	JAK3	Vehicle	OCI-C5x (clear cell)	1	84.1	inactive
20	JAK3	Vehicle	OCI-C5x (clear cell)	2	60.7	active
21	JAK3	Vehicle	OCI-C5x (clear cell)	3	54.8	active
22	JAK3	Vehicle	OCI-P5x (serous)	1	114	inactive
23	JAK3	Vehicle	OCI-P5x (serous)	2	107	inactive
24	JAK3	Vehicle	OCI-P5x (serous)	3	111	inactive

Reformatted: entries from further up
{"Gene":"KDM4B","rucaparib or vehicle":"Rucaparib","cell line":"OCI-C5x (clear cell)","technical replicate":"1","viability, normalised (%)":39.8,"Outcome":"active"}
{"Gene":"KDM4B","rucaparib or vehicle":"Rucaparib","cell line":"OCI-C5x (clear cell)","technical replicate":"2","viability, normalised (%)":37.9,"Outcome":"active"}
{"Gene":"KDM4B","rucaparib or vehicle":"Rucaparib","cell line":"OCI-C5x (clear cell)","technical replicate":"3","viability, normalised (%)":34.8,"Outcome":"active"}
{"Gene":"KDM4B","rucaparib or vehicle":"Rucaparib","cell line":"OCI-P5x (serous)","technical replicate":"1","viability, normalised (%)":54.1,"Outcome":"active"}

Further records:
no.	Gene	rucaparib or vehicle	cell line	technical replicate	viability, normalised (%)	Outcome
25	DCK	Rucaparib	OCI-C5x (clear cell)	1	56.3	active
26	DCK	Rucaparib	OCI-C5x (clear cell)	1	48.6	active
27	DCK	Rucaparib	OCI-C5x (clear cell)	2	63	active
28	DCK	Rucaparib	OCI-C5x (clear cell)	2	49.7	active
29	DCK	Rucaparib	OCI-C5x (clear cell)	3	60	active
30	DCK	Rucaparib	OCI-C5x (clear cell)	3	66.3	active
31	DCK	Rucaparib	OCI-P5x (serous)	1	101	inactive
32	DCK	Rucaparib	OCI-P5x (serous)	1	90.1	inactive
33	DCK	Rucaparib	OCI-P5x (serous)	2	91.6	inactive
34	DCK	Rucaparib	OCI-P5x (serous)	2	111	inactive
35	DCK	Rucaparib	OCI-P5x (serous)	3	64.8	active
36	DCK	Rucaparib	OCI-P5x (serous)	3	122	inactive
37	DCK	Vehicle	OCI-C5x (clear cell)	1	65	active
38	DCK	Vehicle	OCI-C5x (clear cell)	1	52.1	active
39	DCK	Vehicle	OCI-C5x (clear cell)	2	82.1	inactive
40	DCK	Vehicle	OCI-C5x (clear cell)	2	66.7	active
41	DCK	Vehicle	OCI-C5x (clear cell)	3	61.3	active
42	DCK	Vehicle	OCI-C5x (clear cell)	3	64	active
43	DCK	Vehicle	OCI-P5x (serous)	1	91	inactive
44	DCK	Vehicle	OCI-P5x (serous)	1	65.9	active
45	DCK	Vehicle	OCI-P5x (serous)	2	79.7	active
46	DCK	Vehicle	OCI-P5x (serous)	2	90.1	inactive
47	DCK	Vehicle	OCI-P5x (serous)	3	65	active
48	DCK	Vehicle	OCI-P5x (serous)	3	97.3	inactive
49	FOXP1	Rucaparib	OCI-C5x (clear cell)	1	33.3	active
50	FOXP1	Rucaparib	OCI-C5x (clear cell)	2	30.1	active
51	FOXP1	Rucaparib	OCI-C5x (clear cell)	3	31.4	active
52	FOXP1	Rucaparib	OCI-P5x (serous)	1	38.8	active
53	FOXP1	Rucaparib	OCI-P5x (serous)	2	54.1	active
54	FOXP1	Rucaparib	OCI-P5x (serous)	3	39.8	active
55	FOXP1	Vehicle	OCI-C5x (clear cell)	1	17.4	active
56	FOXP1	Vehicle	OCI-C5x (clear cell)	2	27.9	active
57	FOXP1	Vehicle	OCI-C5x (clear cell)	3	52.4	active
58	FOXP1	Vehicle	OCI-P5x (serous)	1	36	active
59	FOXP1	Vehicle	OCI-P5x (serous)	2	33.6	active
60	FOXP1	Vehicle	OCI-P5x (serous)	3	37.2	active
